Measured values taken from PubChem BioAssay AID493014 (National Center for Advancing Translational Sciences (NCATS), 2011).
Some of the results follow. The main result of the screen is listed elsewhere. These columns were measured beside it and carry no call. Compounds called inactive in the main read-out are mostly missing here. Potencies come from curve fits of mixed quality, noted in brackets.

Test: qHTS Assay to Find Inhibitors of Chronic Active B-Cell Receptor Signaling
Conditions: ABC-DLBCL IkBa-CBG/CBR reporter, luminescence ratio (green luciferase fused to IkBa over red control in TMD8 lymphoma cells), 4 h
How it was run: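 TMD8 human ABC-DLBCL cells with doxycycline-inducible IκBα–green luciferase fusion and unfused red luciferase, in 0.5% FBS medium; compounds up to 46 uM, 4 h at 37C. Green/red luminescence ratio, filter-overlap corrected, fitted to concentration-response curves.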

[1] = measured here: CBR red luminescence, cell number

SMILES	AC50 [1]	AC50 (measured here: IkBa-CBG green luminescence)
CCOC(=O)c1c(NC(=O)c2ccccc2N(C)S(=O)(=O)c2ccccc2)sc2c1CCCC2	29.1 µM [falling, single point]	–
Cc1ccc(S(=O)(=O)NCCc2nnc3ccc(SCC(=O)Nc4nc5ccccc5s4)nn23)cc1	6.51 µM [falling, single point]	–
COc1ccc(CN(C(=O)c2ccc(CN3CCOCC3)o2)C(C(=O)NCC2CCCO2)c2ccc(F)cc2)cc1 (configuration not stated)	14.1 µM [falling, partial curve, poor fit]	–
Cc1nc(-c2ccccc2)sc1C1(C)CC(c2cccc([N+](=O)[O-])c2)=NO1 (configuration not stated)	35.5 µM [rising, partial curve, poor fit]	–
Cc1ccc(NC(=O)C(c2ccccc2)N(C)C)cc1Cl (configuration not stated)	0.355 µM [rising, full curve, poor fit]	–
COc1ccccc1CNC(=O)C1CCC(CNS(=O)(=O)c2ccc(NC(C)=O)cc2)CC1 (configuration not stated)	6.31 µM [rising, single point]	–
Cc1ccc(-c2csc(NC(=O)c3ccc4c(=O)n5c(nc4c3)CCCCC5)n2)cc1	5.17 µM [falling, single point]	–
CCC(CC)c1nnc(NC(=O)CN2C(=O)C3C4C=CC(C4)C3C2=O)s1 (configuration not stated)	2.06 µM [rising, partial curve, poor fit]	–
C=CCNc1nc(SCC=C)nc2ccsc12	12.6 µM [rising, partial curve, poor fit]	–
Cc1ccc(O)c(-c2cc(C(=O)Nc3ccc(S(=O)(=O)Nc4nccc(C)n4)cc3)[nH]n2)c1	20 µM [falling, single point]	–
O=C(Nc1ccccc1)C1Cc2ccccc2CN1C(=O)c1ccco1 (configuration not stated)	9.2 µM [falling, partial curve]	–
Cc1nn(CCC(=O)NNC(=S)NCC(C)C)c(C)c1Br	–	11.6 µM [falling, partial curve]
c1ccc(N2CCCCC2)c(Nc2nc3ccccc3n3cnnc23)c1	6.31 µM [rising, full curve, poor fit]	–
CN(C)CCCNS(=O)(=O)c1ccc(N2CCN(Cc3ccc4c(c3)OCO4)CC2)c([N+](=O)[O-])c1	35.5 µM [falling, single point]	–
Nc1c(-c2ccccc2)cnc2cc(-c3ccccc3)nn12	2.82 µM [falling, full curve]	–
O=C(O)CC(CC(=O)Nc1ccc(Oc2ccccc2)cc1)c1ccccc1 (configuration not stated)	0.447 µM [falling, full curve, poor fit]	–
Cc1ccc(-n2ncc3c(N4CCCCC4)ncnc32)cc1	11.2 µM [falling, single point]	–

A portion from further up, for reference:
SMILES	AC50 [1]	AC50 (measured here: IkBa-CBG green luminescence)
c1ccc(N2CCCCC2)c(Nc2nc3ccccc3n3cnnc23)c1	6.31 µM [rising, full curve, poor fit]	–
CN(C)CCCNS(=O)(=O)c1ccc(N2CCN(Cc3ccc4c(c3)OCO4)CC2)c([N+](=O)[O-])c1	35.5 µM [falling, single point]	–
Nc1c(-c2ccccc2)cnc2cc(-c3ccccc3)nn12	2.82 µM [falling, full curve]	–
